PubChem BioAssay AID1259271 | Sanger Institute, 2017

Test: 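Kinase siRNAs that make BYL719, cetuximab or trametinib kill more cells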 (follow-up of hits)
Cells: RKO colorectal cancer cells
Reagent: single siRNA against human genes
Treatment: anchor drug added to each siRNA well, cetuximab 5 µg/ml, trametinib 10 nM or BYL719 1 µM, compared with DMSO vehicle; exposure length not given
Read-out: 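Synergy score for each anchor drug (trametinib 10 nM, cetuximab 5 µg/ml, BYL719 1 µM, against DMSO) and survival versus control pool 2 (non-targeting), each a replicate mean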
Scale: synergy score with BYL719 and synergy score with cetuximab and synergy score with trametinib: higher = stronger synthetic lethality with the drug
Call rule: 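Any anchor drug giving synergy above 0.10 makes the siRNA a hit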
Meaning of the calls: active = synergy with at least one drug; inactive = no synergy with any drug
In all, the deposit lists 160 reagents; below is an unselected part. In the full data, 124 (78%) were called active. 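Each row is one of four siRNAs per gene; gene-level confirmation, requiring two siRNAs in several cell lines, is not included.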 Entries without a mark were called inactive. The numbers tell different reagents against one gene apart. Further read-outs or replicates are left out here. Not stated in the record: the amount of reagent, the time to read-out.

gene knocked down | siRNA no. | synergy score with BYL719 | synergy score with cetuximab | synergy score with trametinib
MPP3 | 1 | -0.0195 (active) | 0.0251 | 0.188
MPP3 | 2 | 0.203 (active) | 0.337 | 0.364
MPP3 | 3 | 0.117 (active) | 0.082 | 0.26
MPP3 | 4 | 0.207 (active) | 0.449 | 0.348
MAP3K8 | 1 | -0.207 | -0.0195 | 0.0896
MAP3K8 | 2 | 0.0856 (active) | 0.113 | 0.158
MAP3K8 | 3 | -0.106 (active) | 0.125 | 0.158
MAP3K8 | 4 | 0.0189 (active) | 0.283 | 0.318
HUNK | 1 | -0.0981 | 0.0583 | 0.0564
HUNK | 2 | -0.127 (active) | 0.0542 | 0.16
HUNK | 3 | 0.0556 (active) | 0.087 | 0.292
HUNK | 4 | 0.00835 (active) | 0.211 | 0.282
PLK1 | 1 | 0.00783 | 0.0362 | 0.0708
PLK1 | 2 | 0.00428 | 0.0889 | 0.0546
PLK1 | 3 | 0.0143 | 0.053 | 0.0576
PLK1 | 4 | -0.0373 | 0.00755 | 0.0444
CRIM1 | 1 | -0.0194 (active) | -0.00112 | 0.131
CRIM1 | 2 | -0.197 | 0.0623 | 0.0959
CRIM1 | 3 | -0.13 (active) | -0.0717 | 0.12
CRIM1 | 4 | -0.0529 | 0.00547 | 0.0648
HSPB8 | 1 | 0.0831 (active) | 0.097 | 0.283
HSPB8 | 2 | 0.0613 (active) | 0.242 | 0.161
HSPB8 | 3 | -0.0607 (active) | 0.11 | 0.00196
HSPB8 | 4 | 0.14 (active) | 0.155 | 0.239
MARK3 | 1 | -0.00368 | 0.0527 | 0.00175
MARK3 | 2 | 0.0456 | 0.086 | 0.00538
MARK3 | 3 | -0.116 (active) | 0.12 | 0.067
MARK3 | 4 | -0.0457 (active) | 0.172 | 0.159
IRAK3 | 1 | -0.12 (active) | -0.146 | 0.131
IRAK3 | 2 | -0.15 | -0.0554 | 0.0567
IRAK3 | 3 | -0.0135 (active) | -0.00485 | 0.105
IRAK3 | 4 | 0.015 (active) | -0.0542 | 0.128
MAPK4 | 1 | -0.0281 (active) | 0.02 | 0.248
MAPK4 | 2 | 0.216 (active) | 0.191 | 0.386
MAPK4 | 3 | 0.0741 (active) | 0.134 | 0.147
MAPK4 | 4 | 0.179 (active) | 0.14 | 0.367
PINK1 | 1 | -0.188 (active) | -0.0182 | 0.11
PINK1 | 2 | -0.0418 (active) | 0.0374 | 0.132
PINK1 | 3 | -0.0713 | 0.00997 | 0.0213
PINK1 | 4 | -0.0875 (active) | 0.176 | 0.259
NR2F2 | 1 | -0.091 (active) | 0.18 | 0.208
NR2F2 | 2 | 0.0396 (active) | 0.339 | 0.111
NR2F2 | 3 | -0.19 | -0.00208 | -0.0789
NR2F2 | 4 | -0.0358 (active) | -0.107 | 0.118
PAK1 | 1 | 0.0505 (active) | 0.105 | 0.271
PAK1 | 2 | 0.165 (active) | 0.367 | 0.331
PAK1 | 3 | 0.295 (active) | 0.295 | 0.327
PAK1 | 4 | 0.177 (active) | 0.225 | 0.169
BMPR2 | 1 | -0.00612 (active) | 0.125 | 0.154
BMPR2 | 2 | 0.0942 (active) | 0.293 | 0.28
BMPR2 | 3 | -0.119 (active) | 0.0257 | 0.137
BMPR2 | 4 | -0.275 | 0.0178 | -0.00509

An excerpt of the results above, as a working copy:
gene knocked down | siRNA no. | synergy score with BYL719 | synergy score with cetuximab | synergy score with trametinib
MPP3 | 3 | 0.117 (active) | 0.082 | 0.26
MPP3 | 4 | 0.207 (active) | 0.449 | 0.348
MAP3K8 | 1 | -0.207 | -0.0195 | 0.0896
MAP3K8 | 2 | 0.0856 (active) | 0.113 | 0.158
